Assay results as given in the supplement of paper PMC10849652.
The list shows a part of the results.

By UniProt entry, the sequences of proteins in these tests, tags left out. Where a name states a change or a piece, a line headed by the entry shows the natural chain unless it says otherwise.
UniProt Q9UFN0: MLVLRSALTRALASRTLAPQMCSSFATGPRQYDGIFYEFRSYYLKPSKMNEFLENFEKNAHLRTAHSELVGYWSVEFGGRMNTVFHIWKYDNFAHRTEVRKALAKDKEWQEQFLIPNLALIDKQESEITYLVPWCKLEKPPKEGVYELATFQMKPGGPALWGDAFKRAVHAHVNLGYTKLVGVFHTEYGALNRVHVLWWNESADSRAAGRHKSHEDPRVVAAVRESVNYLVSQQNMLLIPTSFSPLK
UniProt O43181, whole entry, looked up: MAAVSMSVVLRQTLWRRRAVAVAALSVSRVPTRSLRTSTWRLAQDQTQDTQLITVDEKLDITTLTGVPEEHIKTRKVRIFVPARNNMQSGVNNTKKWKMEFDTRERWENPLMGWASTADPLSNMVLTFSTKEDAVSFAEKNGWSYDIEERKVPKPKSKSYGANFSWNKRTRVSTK
UniProt Q96IV0: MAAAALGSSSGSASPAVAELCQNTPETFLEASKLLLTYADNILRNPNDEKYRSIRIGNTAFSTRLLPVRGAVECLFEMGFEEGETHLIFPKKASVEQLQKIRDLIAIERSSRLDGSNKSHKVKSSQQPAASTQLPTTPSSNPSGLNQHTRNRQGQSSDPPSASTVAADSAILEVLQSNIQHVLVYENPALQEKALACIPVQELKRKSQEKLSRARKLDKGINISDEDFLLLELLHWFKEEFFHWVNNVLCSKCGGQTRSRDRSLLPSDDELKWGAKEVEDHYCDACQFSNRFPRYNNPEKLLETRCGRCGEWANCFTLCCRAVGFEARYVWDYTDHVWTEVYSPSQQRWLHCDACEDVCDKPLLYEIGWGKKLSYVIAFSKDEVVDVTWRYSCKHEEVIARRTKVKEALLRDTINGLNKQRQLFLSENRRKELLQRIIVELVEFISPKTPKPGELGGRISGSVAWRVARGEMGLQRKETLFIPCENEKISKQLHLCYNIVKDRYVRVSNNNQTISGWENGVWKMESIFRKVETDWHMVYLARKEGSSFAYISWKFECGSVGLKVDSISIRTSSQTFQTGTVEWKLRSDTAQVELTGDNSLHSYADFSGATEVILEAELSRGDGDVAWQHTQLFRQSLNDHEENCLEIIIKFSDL
UniProt Q9UMS0: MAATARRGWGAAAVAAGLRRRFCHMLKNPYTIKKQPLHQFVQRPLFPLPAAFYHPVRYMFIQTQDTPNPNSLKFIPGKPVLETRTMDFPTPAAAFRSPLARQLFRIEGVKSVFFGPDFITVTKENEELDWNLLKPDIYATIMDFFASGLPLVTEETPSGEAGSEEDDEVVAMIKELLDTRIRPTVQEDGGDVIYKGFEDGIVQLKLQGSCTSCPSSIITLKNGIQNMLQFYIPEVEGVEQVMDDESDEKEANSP
UniProt Q9NQR4: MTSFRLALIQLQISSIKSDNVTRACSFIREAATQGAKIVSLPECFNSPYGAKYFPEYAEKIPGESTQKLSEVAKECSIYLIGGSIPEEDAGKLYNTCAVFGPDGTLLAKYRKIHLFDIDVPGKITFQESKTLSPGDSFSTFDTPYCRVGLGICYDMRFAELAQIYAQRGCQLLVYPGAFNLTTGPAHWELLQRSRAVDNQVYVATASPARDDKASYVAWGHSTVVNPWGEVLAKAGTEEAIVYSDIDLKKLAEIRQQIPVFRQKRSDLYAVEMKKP
UniProt Q9UN36: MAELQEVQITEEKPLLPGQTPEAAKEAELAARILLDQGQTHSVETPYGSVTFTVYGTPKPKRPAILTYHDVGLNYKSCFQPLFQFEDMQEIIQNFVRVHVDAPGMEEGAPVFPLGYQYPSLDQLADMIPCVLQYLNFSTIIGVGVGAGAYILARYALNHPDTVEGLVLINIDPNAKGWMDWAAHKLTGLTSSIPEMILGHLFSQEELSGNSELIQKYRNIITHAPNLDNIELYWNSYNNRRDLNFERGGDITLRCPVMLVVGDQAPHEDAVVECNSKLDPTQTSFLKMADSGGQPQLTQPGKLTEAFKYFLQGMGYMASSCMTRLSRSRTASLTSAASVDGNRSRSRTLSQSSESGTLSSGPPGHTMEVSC
UniProt O95169, whole entry, looked up: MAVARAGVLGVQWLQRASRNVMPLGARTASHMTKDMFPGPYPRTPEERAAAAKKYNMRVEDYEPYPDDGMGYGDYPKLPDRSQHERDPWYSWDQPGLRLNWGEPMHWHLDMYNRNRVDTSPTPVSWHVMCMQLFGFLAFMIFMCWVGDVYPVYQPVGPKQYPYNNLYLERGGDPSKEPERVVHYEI
UniProt Q86Y39, whole entry, looked up: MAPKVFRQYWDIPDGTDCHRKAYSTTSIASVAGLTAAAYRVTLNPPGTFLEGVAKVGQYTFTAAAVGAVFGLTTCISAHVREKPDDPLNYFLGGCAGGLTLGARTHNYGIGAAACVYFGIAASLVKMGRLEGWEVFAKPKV
UniProt Q9NX02: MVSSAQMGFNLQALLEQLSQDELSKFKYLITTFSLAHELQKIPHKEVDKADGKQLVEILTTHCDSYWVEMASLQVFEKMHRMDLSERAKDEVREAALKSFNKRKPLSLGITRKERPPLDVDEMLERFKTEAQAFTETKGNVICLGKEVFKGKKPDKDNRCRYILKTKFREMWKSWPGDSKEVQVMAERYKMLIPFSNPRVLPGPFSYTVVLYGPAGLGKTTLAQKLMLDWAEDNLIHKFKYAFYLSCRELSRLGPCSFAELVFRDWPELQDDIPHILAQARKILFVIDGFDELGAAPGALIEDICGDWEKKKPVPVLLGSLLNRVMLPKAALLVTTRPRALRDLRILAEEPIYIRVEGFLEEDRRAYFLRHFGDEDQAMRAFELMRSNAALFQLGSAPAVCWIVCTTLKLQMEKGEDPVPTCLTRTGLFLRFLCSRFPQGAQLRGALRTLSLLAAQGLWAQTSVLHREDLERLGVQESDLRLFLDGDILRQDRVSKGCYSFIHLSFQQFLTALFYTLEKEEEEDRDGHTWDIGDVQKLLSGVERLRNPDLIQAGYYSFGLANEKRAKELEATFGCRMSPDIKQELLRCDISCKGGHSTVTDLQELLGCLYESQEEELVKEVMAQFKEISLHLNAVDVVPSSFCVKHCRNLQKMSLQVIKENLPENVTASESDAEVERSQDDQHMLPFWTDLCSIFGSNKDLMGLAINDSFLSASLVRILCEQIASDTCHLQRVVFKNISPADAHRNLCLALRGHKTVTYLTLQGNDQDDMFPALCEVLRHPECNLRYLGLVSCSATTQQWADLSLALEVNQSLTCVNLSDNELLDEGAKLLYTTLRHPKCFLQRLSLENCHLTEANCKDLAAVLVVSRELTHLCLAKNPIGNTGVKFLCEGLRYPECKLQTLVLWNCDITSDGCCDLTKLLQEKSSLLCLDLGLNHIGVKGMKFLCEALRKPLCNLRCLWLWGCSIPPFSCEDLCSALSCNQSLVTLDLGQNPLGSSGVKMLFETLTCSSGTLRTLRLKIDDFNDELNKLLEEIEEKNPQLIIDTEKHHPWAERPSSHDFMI
UniProt P49821, whole entry, looked up: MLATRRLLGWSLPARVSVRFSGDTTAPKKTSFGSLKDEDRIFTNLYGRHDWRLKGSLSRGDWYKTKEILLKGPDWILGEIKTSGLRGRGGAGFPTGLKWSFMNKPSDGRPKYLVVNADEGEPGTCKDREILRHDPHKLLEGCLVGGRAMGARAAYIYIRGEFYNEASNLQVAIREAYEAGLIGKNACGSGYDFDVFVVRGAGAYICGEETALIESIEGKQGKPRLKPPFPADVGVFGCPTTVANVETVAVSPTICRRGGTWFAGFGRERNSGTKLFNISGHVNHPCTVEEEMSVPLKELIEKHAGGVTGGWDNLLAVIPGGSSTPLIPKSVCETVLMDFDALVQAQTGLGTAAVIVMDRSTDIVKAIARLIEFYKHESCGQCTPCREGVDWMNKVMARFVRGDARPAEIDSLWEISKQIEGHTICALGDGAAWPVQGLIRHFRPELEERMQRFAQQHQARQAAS
UniProt Q9UI09, whole entry, looked up: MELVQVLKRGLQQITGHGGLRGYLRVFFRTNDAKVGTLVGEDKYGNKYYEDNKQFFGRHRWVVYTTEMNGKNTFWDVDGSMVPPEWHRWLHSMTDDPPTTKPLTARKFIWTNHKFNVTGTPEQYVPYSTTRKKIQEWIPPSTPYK
UniProt Q9P032: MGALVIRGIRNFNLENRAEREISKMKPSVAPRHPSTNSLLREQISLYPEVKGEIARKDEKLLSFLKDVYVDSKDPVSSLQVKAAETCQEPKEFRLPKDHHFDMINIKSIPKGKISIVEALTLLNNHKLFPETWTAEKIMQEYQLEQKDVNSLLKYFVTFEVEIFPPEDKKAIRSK
UniProt Q92692, whole entry, looked up: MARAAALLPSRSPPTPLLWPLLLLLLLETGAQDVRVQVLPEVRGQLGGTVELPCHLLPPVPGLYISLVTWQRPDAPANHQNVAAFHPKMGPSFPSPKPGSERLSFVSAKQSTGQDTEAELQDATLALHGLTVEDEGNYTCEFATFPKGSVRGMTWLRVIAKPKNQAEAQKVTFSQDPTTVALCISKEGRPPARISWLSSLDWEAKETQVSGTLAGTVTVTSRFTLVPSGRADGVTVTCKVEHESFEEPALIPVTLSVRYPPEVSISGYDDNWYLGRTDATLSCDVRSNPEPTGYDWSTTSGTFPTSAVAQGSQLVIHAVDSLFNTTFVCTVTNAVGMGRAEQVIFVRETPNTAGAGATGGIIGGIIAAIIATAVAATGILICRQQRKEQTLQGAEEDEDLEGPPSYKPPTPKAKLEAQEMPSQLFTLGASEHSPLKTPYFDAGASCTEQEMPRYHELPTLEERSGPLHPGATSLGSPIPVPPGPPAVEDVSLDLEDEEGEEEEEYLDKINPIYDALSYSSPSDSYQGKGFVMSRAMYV
UniProt Q8N8Q9: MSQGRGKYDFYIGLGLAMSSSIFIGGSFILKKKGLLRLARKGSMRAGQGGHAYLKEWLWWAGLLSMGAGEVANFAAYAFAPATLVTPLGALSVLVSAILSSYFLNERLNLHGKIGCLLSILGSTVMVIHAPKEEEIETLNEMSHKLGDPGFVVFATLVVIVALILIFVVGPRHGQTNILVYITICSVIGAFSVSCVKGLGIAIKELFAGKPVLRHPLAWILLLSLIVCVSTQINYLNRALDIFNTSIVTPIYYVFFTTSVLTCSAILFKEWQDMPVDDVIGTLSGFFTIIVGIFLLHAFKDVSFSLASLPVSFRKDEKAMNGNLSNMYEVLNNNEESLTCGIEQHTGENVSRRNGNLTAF
UniProt P08651, whole entry, looked up: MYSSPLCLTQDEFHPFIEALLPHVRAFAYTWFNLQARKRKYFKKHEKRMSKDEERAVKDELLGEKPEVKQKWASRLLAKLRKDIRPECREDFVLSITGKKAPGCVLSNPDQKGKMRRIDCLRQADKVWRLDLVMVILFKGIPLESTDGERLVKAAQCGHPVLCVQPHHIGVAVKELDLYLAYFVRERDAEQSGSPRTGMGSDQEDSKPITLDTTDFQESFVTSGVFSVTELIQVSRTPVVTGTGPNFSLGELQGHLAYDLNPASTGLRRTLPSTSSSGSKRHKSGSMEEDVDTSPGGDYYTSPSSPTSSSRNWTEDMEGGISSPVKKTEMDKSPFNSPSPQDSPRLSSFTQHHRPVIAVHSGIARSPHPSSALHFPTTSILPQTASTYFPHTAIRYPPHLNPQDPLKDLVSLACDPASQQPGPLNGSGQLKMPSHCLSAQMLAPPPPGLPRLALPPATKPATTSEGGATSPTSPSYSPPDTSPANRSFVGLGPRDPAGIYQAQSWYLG
UniProt O95139, whole entry, looked up: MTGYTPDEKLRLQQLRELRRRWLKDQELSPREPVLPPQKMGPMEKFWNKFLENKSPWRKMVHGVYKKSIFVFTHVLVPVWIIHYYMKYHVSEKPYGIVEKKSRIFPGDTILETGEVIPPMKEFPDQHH
UniProt P23511, whole entry, looked up: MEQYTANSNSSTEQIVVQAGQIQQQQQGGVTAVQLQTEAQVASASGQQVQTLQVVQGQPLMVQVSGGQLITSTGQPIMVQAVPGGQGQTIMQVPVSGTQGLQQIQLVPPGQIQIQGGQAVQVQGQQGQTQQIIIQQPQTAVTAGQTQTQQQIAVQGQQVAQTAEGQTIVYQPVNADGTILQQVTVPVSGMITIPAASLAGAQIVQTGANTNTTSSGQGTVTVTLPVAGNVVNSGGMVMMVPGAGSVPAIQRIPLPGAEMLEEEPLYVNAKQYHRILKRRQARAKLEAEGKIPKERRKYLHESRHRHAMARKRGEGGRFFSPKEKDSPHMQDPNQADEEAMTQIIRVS
UniProt O75306, whole entry, looked up: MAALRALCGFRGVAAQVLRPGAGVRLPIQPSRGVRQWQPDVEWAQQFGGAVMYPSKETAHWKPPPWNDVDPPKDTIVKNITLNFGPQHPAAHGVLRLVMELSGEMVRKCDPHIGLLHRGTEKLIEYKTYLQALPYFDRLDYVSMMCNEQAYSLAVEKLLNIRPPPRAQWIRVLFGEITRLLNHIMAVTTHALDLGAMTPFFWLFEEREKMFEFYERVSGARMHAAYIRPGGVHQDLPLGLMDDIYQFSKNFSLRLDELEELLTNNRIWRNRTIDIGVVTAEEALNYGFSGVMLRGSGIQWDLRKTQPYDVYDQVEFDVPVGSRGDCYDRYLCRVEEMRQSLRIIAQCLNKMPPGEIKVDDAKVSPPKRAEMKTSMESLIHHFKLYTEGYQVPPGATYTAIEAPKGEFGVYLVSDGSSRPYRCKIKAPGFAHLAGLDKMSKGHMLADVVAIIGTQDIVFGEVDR

What was measured:
Assay in all cases: log2 fold change, soluble protein after heating vs DMSO (PISA); higher = thermal stabilisation; K562 lysate, 10 uM; active = over 0.2 and 3.5 SD of the protein, either way, in both replicates (recomputed)
erlotinib = compound: C#Cc1cccc(Nc2ncnc3cc(OCCOC)c(OCCOC)cc23)c1 [erlotinib]
Outline: (§1)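 Values give the log-two fold change in thermal stability against solvent controls, from duplicates. Crude K562 extract at 1 mg/mL protein, made by dounce homogenisation in PBS pH 7.4 with 1 mM MgCl2, was treated with 10 μM compound for 30 min. After 3 min heating across 48°C-58°C, aliquots were pooled, adjusted to 0.5% NP-40 at 4°C and centrifuged at 21,000xg for 90 min. The supernatant was measured by TMTpro 16plex LC-MS/MS with channel sums equalised.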

[1] = compound: C/C(=N\NC(=O)C1=CC(=CC=C1)S(=O)(=O)N2CCOCC2)/C3=C(C=CC(=C3)Cl)O
Outline: as §1

[2] = compound: C1=CC(=CC=C1C2=NC3=C(N2)C=C(C=C3)C(=O)N)OC4=CC=C(C=C4)Cl
Outline: as §1

[3] = compound: C1=CC2=C(C=CC(=C2)/C=C\3/C(=O)NC(=NCC4=CC=CS4)S3)N=C1
Outline: as §1

[4] = compound: C1=CC2=NC=CN=C2C=C1/C=C/3\C(=O)NC(=O)S3
Outline: as §1

[5] = compound: C1=CC=C(C=C1)C2=NC(=C(N2)C3=CC=NC=C3)C4=CC(=C(C=C4)Cl)O
Outline: as §1

[6] = compound: C1=CC=C2C(=C1)C3=NNC4=CC=CC(=C43)C2=O
Outline: as §1

[7] = compound: C1CCN(C1)C(=O)NC2=CC=CC(=C2)NC3=NC=C(C(=N3)NCCC4=CN=CN4)Br
Outline: as §1

[8] = compound: C1CN(CCC1(CC2=CC=C(C=C2)Cl)N)C3=NC=NC4=C3C=CN4
Outline: as §1

IRAK-1-4 Inhibitor I = compound: C1COCCN1CCN2C3=CC=CC=C3N=C2NC(=O)C4=CC(=CC=C4)[N+](=O)[O-] [IRAK-1-4 Inhibitor I]
Outline: as §1

Measured: log2 fold change

NIPSNAP3A (UniProt Q9UFN0)
inactive: erlotinib 0.008 | [1] -0.014 | [2] 0.062 | [3] -0.03 | [4] 0.012 | [5] 0.003 | [6] 0.015 | [7] -0.012 | [8] 0.002 | IRAK-1-4 Inhibitor I 0.015

NDUFS4 (UniProt O43181)
inactive: erlotinib 0.032 | [1] -0.094 | [2] 0.057 | [3] -0.021 | [4] -0.02 | [5] 0.004 | [6] -0.031 | [7] -0.02 | [8] 0.015 | IRAK-1-4 Inhibitor I -0.047

NFKBIE (UniProt O00221)
inactive: erlotinib 0.014 | [1] -0.009 | [2] -0.117 | [3] 0.059 | [4] -0.022 | [5] 0.059 | [6] -0.026 | [7] -0.078 | [8] 0.081 | IRAK-1-4 Inhibitor I 0.119

NGLY1 (UniProt Q96IV0)
inactive: erlotinib 0.022 | [1] -0.064 | [2] -0.031 | [3] -0.01 | [4] -0.009 | [5] 0.009 | [6] -0.063 | [7] -0.001 | [8] -0.011 | IRAK-1-4 Inhibitor I -0.024

NFU1 (UniProt Q9UMS0)
inactive: erlotinib -0.01 | [1] 0.027 | [2] 0.03 | [3] -0.02 | [4] -0.046 | [5] 0.003 | [6] 0.004 | [7] 0.041 | [8] 0.014 | IRAK-1-4 Inhibitor I -0.002

NIT2 (UniProt Q9NQR4)
inactive: erlotinib -0.048 | [1] 0.001 | [2] 0.014 | [3] 0.009 | [4] 0.007 | [5] -0.03 | [6] 0.032 | [7] -0.006 | [8] 0.015 | IRAK-1-4 Inhibitor I 0.067

NDRG2 (UniProt Q9UN36)
inactive: erlotinib -0.002 | [1] -0.157 | [2] 0.023 | [3] 0.002 | [4] -0.022 | [5] 0.023 | [6] -0.037 | [7] 0.019 | [8] 0.044 | IRAK-1-4 Inhibitor I 0.024

NDUFB8 (UniProt O95169)
inactive: erlotinib 0.047 | [1] 0.02 | [2] -0.072 | [3] -0.001 | [4] 0.132 | [5] -0.022 | [6] 0.076 | [7] 0.009 | [8] 0.217 | IRAK-1-4 Inhibitor I -0.033

NDUFA11 (UniProt Q86Y39)
inactive: erlotinib 0.032 | [1] -0.085 | [2] -0.056 | [3] -0.074 | [4] -0.007 | [5] -0.043 | [6] -0.003 | [7] -0.009 | [8] -0.032 | IRAK-1-4 Inhibitor I -0.035

NEK1 isoform 3 (UniProt Q96PY6)
inactive: erlotinib 0.03 | [1] -0.076 | [2] -0.011 | [3] 0 | [4] -0.04 | [5] 0.031 | [6] 0.006 | [7] 0.004 | [8] 0.017 | IRAK-1-4 Inhibitor I 0.012

NDUFAF2 (UniProt Q8N183)
inactive: erlotinib 0.014 | [1] -0.048 | [2] 0 | [3] -0.013 | [4] 0.02 | [5] -0.018 | [6] -0.004 | [7] 0.02 | [8] -0.003 | IRAK-1-4 Inhibitor I -0.039

NDUFB11 isoform 2 (UniProt Q9NX14)
inactive: erlotinib 0.037 | [1] -0.006 | [2] -0.067 | [3] 0.006 | [4] -0.033 | [5] -0.029 | [6] -0.029 | [7] 0.008 | [8] 0.012 | IRAK-1-4 Inhibitor I 0.044

NEMF (UniProt O60524)
inactive: erlotinib 0.01 | [1] 0.036 | [2] -0.046 | [3] 0.009 | [4] -0.025 | [5] 0.017 | [6] 0.004 | [7] 0.015 | [8] -0.009 | IRAK-1-4 Inhibitor I 0

NIPBL (UniProt Q6KC79)
inactive: erlotinib -0.025 | [1] 0.044 | [2] -0.003 | [3] 0.009 | [4] 0.005 | [5] -0.013 | [6] 0.003 | [7] -0.014 | [8] 0.007 | IRAK-1-4 Inhibitor I -0.043

NLRP2 (UniProt Q9NX02)
inactive: erlotinib 0.004 | [1] -0.015 | [2] -0.002 | [3] -0.005 | [4] -0.013 | [5] -0.002 | [6] -0.021 | [7] 0.01 | [8] -0.031 | IRAK-1-4 Inhibitor I -0.043

NEBL (UniProt O76041)
inactive: erlotinib -0.014 | [1] -0.028 | [2] 0.05 | [3] 0.015 | [4] -0.048 | [5] 0.001 | [6] -0.082 | [7] -0.087 | [8] 0.013 | IRAK-1-4 Inhibitor I 0.054

NEDD4L (UniProt Q96PU5)
inactive: erlotinib -0.043 | [1] 0.026 | [2] -0.022 | [3] 0.043 | [4] -0.005 | [5] -0.018 | [6] -0.024 | [7] 0.003 | [8] -0.014 | IRAK-1-4 Inhibitor I 0.004

Reprinted at random: two entries already listed
NEDD4L (UniProt Q96PU5)
inactive: erlotinib -0.043 | [1] 0.026 | [2] -0.022 | [3] 0.043 | [4] -0.005 | [5] -0.018 | [6] -0.024 | [7] 0.003 | [8] -0.014 | IRAK-1-4 Inhibitor I 0.004

NEBL (UniProt O76041)
inactive: erlotinib -0.014 | [1] -0.028 | [2] 0.05 | [3] 0.015 | [4] -0.048 | [5] 0.001 | [6] -0.082 | [7] -0.087 | [8] 0.013 | IRAK-1-4 Inhibitor I 0.054

The listing continues.

NDUFA10 (UniProt O95299)
inactive: erlotinib 0.045 | [1] 0.022 | [2] -0.064 | [3] 0.02 | [4] 0.236 | [5] -0.018 | [6] -0.025 | [7] 0.012 | [8] 0.017 | IRAK-1-4 Inhibitor I -0.032

NFX1 (UniProt Q12986)
inactive: erlotinib 0.008 | [1] 0.003 | [2] 0.053 | [3] -0.004 | [4] 0.022 | [5] 0.015 | [6] -0.006 | [7] 0.13 | [8] 0.011 | IRAK-1-4 Inhibitor I -0.004

NDUFV1 (UniProt P49821)
inactive: erlotinib 0 | [1] -0.017 | [2] -0.009 | [3] -0.026 | [4] -0.024 | [5] -0.01 | [6] -0.021 | [7] -0.027 | [8] 0.023 | IRAK-1-4 Inhibitor I 0.019

NDUFA12 (UniProt Q9UI09)
inactive: erlotinib -0.065 | [1] 0.147 | [2] -0.07 | [3] 0.081 | [4] -0.083 | [5] -0.035 | [6] -0.081 | [7] -0.023 | [8] 0.046 | IRAK-1-4 Inhibitor I -0.031

NDUFAF4 (UniProt Q9P032)
inactive: erlotinib -0.016 | [1] -0.038 | [2] -0.054 | [3] -0.022 | [4] -0.007 | [5] -0.017 | [6] -0.033 | [7] -0.003 | [8] -0.004 | IRAK-1-4 Inhibitor I 0.001

NDUFB4 (UniProt O95168)
inactive: erlotinib 0.023 | [1] 0.056 | [2] -0.098 | [3] 0.003 | [4] -0.111 | [5] 0.011 | [6] 0 | [7] -0.009 | [8] 0.007 | IRAK-1-4 Inhibitor I -0.005

NECTIN2 (UniProt Q92692)
inactive: erlotinib -0.006 | [1] -0.027 | [2] 0.005 | [3] 0.013 | [4] 0.01 | [5] -0.002 | [6] 0.006 | [7] 0.019 | [8] -0.005 | IRAK-1-4 Inhibitor I -0.001

NIPA2 (UniProt Q8N8Q9)
inactive: erlotinib -0.102 | [1] 0.02 | [2] 0.035 | [3] 0.091 | [4] -0.007 | [5] 0 | [6] -0.069 | [7] -0.089 | [8] 0.079 | IRAK-1-4 Inhibitor I -0.088

NFIC (UniProt P08651)
inactive: erlotinib 0.014 | [1] 0.063 | [2] -0.044 | [3] 0.025 | [4] 0.001 | [5] -0.084 | [6] -0.082 | [7] -0.016 | [8] -0.032 | IRAK-1-4 Inhibitor I 0.052

NDUFB6 (UniProt O95139)
inactive: erlotinib -0.01 | [1] 0.012 | [2] 0 | [3] 0 | [4] 0.016 | [5] -0.004 | [6] -0.025 | [7] -0.022 | [8] -0.002 | IRAK-1-4 Inhibitor I 0.023

NFYA (UniProt P23511)
inactive: erlotinib -0.005 | [1] -0.055 | [2] 0.031 | [3] 0.016 | [4] -0.081 | [5] -0.016 | [6] -0.011 | [7] -0.025 | [8] -0.027 | IRAK-1-4 Inhibitor I 0.007

NDUFS2 (UniProt O75306)
inactive: erlotinib -0.003 | [1] 0.036 | [2] -0.07 | [3] 0.008 | [4] 0.048 | [5] -0.004 | [6] 0 | [7] 0.01 | [8] -0.001 | IRAK-1-4 Inhibitor I 0.022
